Experimental data: PubChem BioAssay AID686937 (Drosophila RNAi Screening Center, 2013)

Test: 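Genes in the fly needed for secretion of protein constitutively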 (primary screen)
System: Drosophila S2 cells expressing secreted horseradish peroxidase
Reagent: long dsRNA against Drosophila genes
Duration: about 5.5 days (5 days dsRNA, then 12 h reporter induction)
Treatment: reporter expression induced after 5 days of dsRNA, read 12 h later; inducer not stated
Read-out: 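After 5 days of dsRNA and 12 h of reporter induction, medium peroxidase read by chemiluminescence and scored as per-plate z-score; higher values mean more reporter released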
Direction: z-score: higher = more reporter secreted into medium
The deposit covers about 23,000 reagents; below is a random part of those that have a named target and a result. 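Reduced-secretion tags in replicate 1 do not always agree with the z-scores; no criterion for assigning the tags was given.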 Names joined by + are all predicted targets of the reagent. The record does not give: the amount of reagent.

Gene | DRSC id | z-score, replicate 1 | z-score, replicate 2 | z-score, replicate 3 | z-score, replicate 4 | phenotype, replicate 1
CG43315 | DRSC06296 | 0.08 | 0.28 | – | – | –
tnc (tenectin) | DRSC14647 | 0.29 | 0.26 | – | – | –
Or85c (Odorant receptor 85c) | DRSC16766 | 0.22 | 0.18 | – | – | –
Psc (Posterior sex combs) | DRSC07518 | 0.38 | 0.33 | – | – | –
CG13193 | DRSC06318 | 0.32 | 0.26 | – | – | –
CG2100 | DRSC12303 | 0.43 | 0.14 | – | – | –
ND-51 (NADH dehydrogenase (ubiquinone) 51 kDa subunit) | DRSC03145 | -0.09 | -0.32 | – | – | –
HP6 (Heterochromatin protein 6) | DRSC00471 | -0.1 | -0.11 | – | – | –
CG6041 | DRSC18396 | 0.33 | 0.41 | – | – | –
Cmpk (Cytidine/uridine monophosphate kinase 1) | DRSC16643 | 0.04 | 0.23 | – | – | –
CG10417 | DRSC04846 | -0.22 | -0.1 | – | – | –
CG30286 | DRSC04070 | 0.02 | 0.07 | – | – | –
Nplp3 (Neuropeptide-like precursor 3) | DRSC09944 | -0.25 | 0.05 | – | – | –
ph-p (polyhomeotic proximal) | DRSC18820 | 0.4 | 0.52 | – | – | –
CG6729 | DRSC02984 | 0.49 | 0.48 | 0.39 | 0.29 | –
CG6729 | DRSC22793 | 0.5 | -0.85 | – | – | –
lncRNA:CR32658 (long non-coding RNA:CR32658) | DRSC19402 | 0.28 | 0.73 | – | – | –
CG7794 | DRSC16313 | 0.39 | 0.37 | – | – | –
Gr68a (Gustatory receptor 68a) | DRSC10803 | 0.17 | 0.07 | – | – | –
CG43138 | DRSC17527 | 0.5 | 0.46 | – | – | –
Prosbeta4 (Proteasome beta4 subunit) | DRSC02603 | -6.3 | -6.06 | – | – | reduced secretion
Not1 | DRSC06787 | -1.86 | -1.36 | – | – | reduced secretion
Not1 | DRSC06794 | -1.87 | -1.22 | – | – | reduced secretion
NP15.6 | DRSC16756 | 0.3 | 0.53 | – | – | –
CG7607 | DRSC10889 | 0.42 | 0.38 | – | – | –
hook | DRSC03545 | 0.29 | 0.17 | – | – | –
CG6220 | DRSC06969 | 0.49 | 0.43 | – | – | –
kni (knirps) | DRSC11891 | 0.4 | 0.57 | – | – | –
CG12075 | DRSC17801 | -0.12 | 0.05 | – | – | –
alt (aluminum tubes) | DRSC15315 | 0.47 | 0.61 | – | – | –
sNPF (short neuropeptide F precursor) | DRSC02309 | 0.36 | 0.31 | – | – | –
CG16837 | DRSC04283 | 0.3 | 0 | – | – | –
Art6 (Arginine methyltransferase 6) | DRSC16583 | 0.3 | 0.52 | – | – | –
CG16711 | DRSC10220 | 0.74 | 0.57 | – | – | –
CG31008 | DRSC14028 | 0.41 | 0.27 | – | – | –
e(y)2 (enhancer of yellow 2) | DRSC19640 | 0.26 | -0.85 | – | – | –
Shawn + Tyler | DRSC19564 | 0.28 | 0.27 | – | – | –
Shawn + Tyler | DRSC19565 | -0.05 | 0.33 | – | – | –
CG17928 | DRSC02644 | -0.09 | 0.13 | – | – | –
for (foraging) | DRSC00195 | -0.63 | 0.27 | – | – | –
for (foraging) | DRSC00818 | 0.51 | 0.43 | – | – | –
CG7342 | DRSC16230 | 0.39 | 0.32 | – | – | –
egg (eggless) | DRSC04119 | 0.31 | 0.11 | – | – | –
egg (eggless) | DRSC22534 | 1.65 | 1.57 | – | – | –
Cpr35B (Cuticular protein 35B) | DRSC01949 | 0.16 | 0.12 | 0.3 | 0.46 | –
Cpr35B (Cuticular protein 35B) | DRSC22797 | 1.04 | 0.56 | – | – | –
Den1 (Deneddylase 1) | DRSC07195 | 0.33 | 0.18 | – | – | –
l(3)72Dr (lethal (3) 72Dr) | DRSC10478 | 0.43 | 0.24 | – | – | –
dmpd (dampened) | DRSC06092 | 0.28 | 0.43 | – | – | –
nom (numerous disordered muscles) | DRSC16389 | 0.27 | 0.25 | – | – | –
Hydr1 (alpha/beta hydrolase 1) | DRSC07063 | 0.79 | 0.27 | – | – | –
Obp50a (Odorant-binding protein 50a) | DRSC22152 | -0.07 | -1.48 | – | – | reduced secretion
ova (ovaries absent) | DRSC02879 | 0.26 | 0.26 | – | – | –
CG17977 | DRSC06700 | 0.18 | 0.18 | – | – | –
RpL28 + snoRNA:Or-CD12 | DRSC08293 | -2.55 | -0.94 | – | – | reduced secretion
CG12716 | DRSC19493 | 0.45 | 0.56 | – | – | –

Just “z-score, replicate 1”, for 9 of the entries above:
Den1 (Deneddylase 1) [DRSC07195]	0.33
l(3)72Dr (lethal (3) 72Dr) [DRSC10478]	0.43
dmpd (dampened) [DRSC06092]	0.28
nom (numerous disordered muscles) [DRSC16389]	0.27
Hydr1 (alpha/beta hydrolase 1) [DRSC07063]	0.79
Obp50a (Odorant-binding protein 50a) [DRSC22152]	-0.07
ova (ovaries absent) [DRSC02879]	0.26
CG17977 [DRSC06700]	0.18
RpL28 + snoRNA:Or-CD12 [DRSC08293]	-2.55
